Experiments:
[1] = test system: Aβ42 secretion; experiment: Aβ40/Aβ42 ELISA of culture supernatants, CHO cells expressing APP751; assay type: cell-based, Chinese hamster; conditions: concentrations up to 400 μM
Method: Cell cultures were maintained in standard cell culture media supplemented with 10% fetal bovine serum and 100 U/mL penicillin/streptomycin (Life Technologies Inc., Germany).
For analyses of Aβ secretion, APP processing, and notch cleavage, cells were cultured in serum-containing media and pretreated overnight with a specific NSAID. The next day, media were changed and cultures were treated with the same NSAID for another 24 hours.
Aβ was detected by sandwich enzyme-linked immunosorbent assay (ELISA) as described by Murphy et al. (2000) J Biol Chem 275:26277-84. Following NSAID treatment, culture supernatants were collected, and cell debris was removed by centrifugation. Complete protease inhibitor cocktail (Roche Molecular Biochemicals, IN, USA) was added to the media and Aβ40 and Aβ42 levels were quantified using end-specific Aβ ELISAs. All measurements were performed in duplicate.
The effect of sulindac sulfone on Aβ42 secretion was examined. Sulindac sulfone is an oxidation product of the pro-drug sulindac. […] Cell cultures were treated with increasing concentrations of sulindac sulfone. Aβ40 and Aβ42 levels in culture supernatants were analyzed using ELISA.
(§1) Aβ40 and Aβ42 levels in cell culture supernatants were analyzed using ELISA. Aβ42/Aβ40 ratios and total Aβ levels were normalized to values obtained from DMSO-treated cultures. […] NSAIDs were verified using NMR and mass spectrometry.

[2] = test system: Aβ42 secretion; experiment: Non-selective and selective COX-inhibitors tested for effect on Aβ42 levels in cell cultures (Table 1 summary); assay type: cell-based; conditions: effect up to the highest conc. tested listed per drug in Table 1
Method: All measurements were performed in duplicate.
as §1

[3] = test system: brain Aβ42 levels in Tg2576 mice; experiment: Acute oral dosing of three-month-old Tg2576 mice, brain Aβ ELISA; assay type: in vivo, mouse
Method: NSAIDs were dissolved in an appropriate vehicle. Dimethyl sulfoxide (DMSO), ethanol, and ethyl acetate are some examples. The NSAID solution was mixed with Kool-Aid and administered orally using a medicine dropper. […] At two hours after the final doses were administered, animals were sacrificed, and SDS soluble Aβ40 and Aβ42 were analyzed using ELISA.
Three month old mice have high levels of soluble Aβ in the brain but no Aβ deposition (see Hsiao et al. (1996) Science 274:99-102). […] Brain levels of SDS-soluble Aβ40 and Aβ42 were measured using ELISA.
Compounds were administered orally.

[4] = plasma concentration of the drug; cited from earlier work
[5] = test system: COX-1/COX-2; conditions: cited from earlier work
[6] = three month-old, 50 mg/kg/day orally for three days, SDS-soluble, mean ± SD

Compound: COc1ccc2cc([C@H](C)C(=O)O)ccc2c1 [Naproxen, naproxen]
- Aβ42/Aβ40 ratios [1]: did not change Aβ42/Aβ40 ratios
- Aβ42/Aβ40 ratio [2]: no effect
- Brain levels of Aβ40 [3, 6]: 2786 ± 179 fmol/gm
- Brain levels of Aβ42 [3, 6]: 1182 ± 93 fmol/gm
- % Aβ42 in brain ([3]; three month-old, 50 mg/kg/day orally for three days, mean ± SD): 29.8 ± 1.6%
- reduction in Aβ42 levels in the brain ([3]; treatment for three days, 50 mg/kg/day): No reduction
- Plasma [4]: 1.3 µM
- COX-1/COX-2 selectivity# (1 = equal activity) [5]: 1.79

— patent publication US20060004086A1, “Method of reducing Abeta42 and treating diseases” (Mayo Foundation for Medical Education and Research, priority 2000, published 2006)
